Measurements from “University of Dundee, Small-Polar-MMV Screening Library” (2021), ChEMBL document CHEMBL3988442.

Results are given as percent effect.
How 0% and 100% were set is not recorded. Most values in the screen are low, and negative values occur.
This is an unselected part of the compounds tested.
Two or more numbers in one place are separate tests of the same structure; such repeats can differ widely.

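Whole-cell growth test on Mycobacterium tuberculosis, read after 4 days in a medium based on cholesterol and the lipid DPPC; the read-out is not stated. Compounds at 50 µM. The record gives no direction; compounds that gave an IC50 in retests scored well above the rest, so higher reads as more growth inhibition. Of about 69,000 compounds tested this way, about 370 (0.54%) reached 50% or more in at least one test.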

- Cc1ccc(F)c(S(=O)(=O)NCc2[nH]ncc2Br)c1 : -13.85%
- CNC(=O)C1CCN(c2nccc(CCC(F)(F)F)n2)C1 (configuration not stated) : 13.93%
- CC(C)(C)N1CC(C(=O)NCc2nc(C3CCCCC3)no2)CC1=O (configuration not stated) : -7.926%
- CCS(=O)(=O)N1CCOC2(CCCN(c3cnccn3)C2)C1.O=C(O)C(F)(F)F (configuration not stated) : -21.8%
- COCC(=O)N1CCN(C(=O)c2cccs2)C[C@H]1C(=O)OC : 22.11%
- O=C(c1cccnc1-n1cncn1)N1CCN(CC2CC2)CC1 : 35.83%
- COc1ccsc1C(=O)NC1CCN(c2cccc(F)c2)CC1 : 10.26%
- Cc1cc(C)n(C2CCCN(C(=O)c3ccc(N(C)C)nn3)C2)n1 (configuration not stated) : -2.791%
- C[C@@H](CO)Nc1cc(-c2cn[nH]c2)ncn1 : -15.79%
- O=C1CC2(CCN(C(=O)c3ccccn3)CC2)Oc2c(Cl)cc(Cl)cc21 : 5.02%
- CNC(=O)C1(C)CN(Cc2cn(C)c3ccc(F)cc23)CCO1 (configuration not stated) : -1.456%
- CCCN(Cc1ccccc1C)C(CC)CO (configuration not stated) : 6.721%
- CCCNS(=O)(=O)c1cnccc1N1CCN(C(C)C)CC1 : -10.55%
- Cc1nc(C2CCCN2CC(=O)Nc2c(C)n[nH]c2C)no1 (configuration not stated) : -61.91%
- Cc1cncc(C(=O)N2CCNCC2C(=O)Nc2ccc(C)nc2)c1 (configuration not stated) : -1.315% and -5.928%
- [H][C@]12CC[C@]([H])(CN(c3cnccn3)C1)N(C(=O)Cc1sc(C)nc1C)C2 : -4.198%
- CCCC1(NC(=O)C(c2ccc(F)cc2)N(C)C)CC1 (configuration not stated) : -5.858%
- COc1cc(C(=O)Nc2nc(C)no2)ccc1OC1CCCC1 : -6.563%
- O=C(NCc1cccs1)NCC(O)(c1cccs1)C1CC1 (configuration not stated) : -13.96%
- CNC(=O)c1cc(C)nc(C2(C)CCCN2c2cc(C)ncn2)n1 (configuration not stated) : -3.415% and -16.43%
- Cc1cccc(C(C)(C)CNc2cn[nH]c(=O)c2Cl)c1 : -22.95%
- COc1cccc(CN2CCC3(CCN(c4ncc(F)cn4)CC3)C2)c1.O=C(O)C(F)(F)F : 29.59%
- CSC(C)C(=O)N(C)CC(=O)Nc1ccc(Br)cn1 (configuration not stated) : 19.17%
- C[C@@H]1CN(CC(C)(C)N2CCOCC2)CC[C@@]1(O)C1CCOCC1 : 32.16%
- [H][C@]12CC[C@]([H])(CN(Cc3cccnc3N)C1)N(Cc1c(C)noc1C)C2=O : -43.77%
- Cc1ccc(C(C(=O)O)N(C)CCCN2CCOCC2)c(C)c1 (configuration not stated) : -4.101% and -10.54%
- Cc1cnc(N2CCC3(CC2)CC(NC(=O)C(C)C)CO3)nc1 (configuration not stated) : -14.76%
- CC(O)CN1CCN(C(=O)c2ccc(N(C)C)nn2)CC1 (configuration not stated) : 6.848%
- O=C(Cc1ccccn1)N1CCC2(CC1)CN(c1ccccn1)CCO2 : -3.667%
- CCN(C)c1ncnc2c1CCN(Cc1csc(C)n1)CC2.O=C(O)C(F)(F)F.O=C(O)C(F)(F)F : -12.96%
- Cc1ccc(C2CCCCCN2Cc2cn(C)nc2C)cc1 (configuration not stated) : 13.82%
- CN(Cc1coc(-c2ccccc2)n1)C1CCCN(c2cccnn2)C1 (configuration not stated) : 8.243%
- COC(=O)[C@H]1C[C@@H](O)CCN1S(=O)(=O)c1ccc(F)cc1F : -15.41%
- CCc1cnc(C)nc1NC1CC(=O)N(CC)C1 (configuration not stated) : -7.329%
- OC[C@@H]1CCCN1Cc1cn(C2CCN(C3CCCC3)CC2)nn1 : -2.557%
- [H][C@@]12C[C@@H](c3nnc(C4CC4)o3)O[C@]1([H])CN(C(=O)c1cccn1C)C2 : -2.742%
- CCNC(c1ccc(Cl)cc1)c1cccnc1 (configuration not stated) : -41.99%
- O=C(O)C(F)(F)F.[H][C@]12CCN(C(=O)c3cccs3)CC[C@]1([H])N(CCOC)CCO2 : -19.08%